Results: the supplement of paper PMC12067093, “Discovery and optimisation of a covalent ligand for TRIM25 and its application to targeted protein ubiquitination” (Chemical Science, 2025)
This is one part of the list.

Sequences of proteins named here, by UniProt entry; tags and fusion partners are left off. A change or cut given only in a name is not applied to a line headed by its entry.
UniProt Q9BRZ2: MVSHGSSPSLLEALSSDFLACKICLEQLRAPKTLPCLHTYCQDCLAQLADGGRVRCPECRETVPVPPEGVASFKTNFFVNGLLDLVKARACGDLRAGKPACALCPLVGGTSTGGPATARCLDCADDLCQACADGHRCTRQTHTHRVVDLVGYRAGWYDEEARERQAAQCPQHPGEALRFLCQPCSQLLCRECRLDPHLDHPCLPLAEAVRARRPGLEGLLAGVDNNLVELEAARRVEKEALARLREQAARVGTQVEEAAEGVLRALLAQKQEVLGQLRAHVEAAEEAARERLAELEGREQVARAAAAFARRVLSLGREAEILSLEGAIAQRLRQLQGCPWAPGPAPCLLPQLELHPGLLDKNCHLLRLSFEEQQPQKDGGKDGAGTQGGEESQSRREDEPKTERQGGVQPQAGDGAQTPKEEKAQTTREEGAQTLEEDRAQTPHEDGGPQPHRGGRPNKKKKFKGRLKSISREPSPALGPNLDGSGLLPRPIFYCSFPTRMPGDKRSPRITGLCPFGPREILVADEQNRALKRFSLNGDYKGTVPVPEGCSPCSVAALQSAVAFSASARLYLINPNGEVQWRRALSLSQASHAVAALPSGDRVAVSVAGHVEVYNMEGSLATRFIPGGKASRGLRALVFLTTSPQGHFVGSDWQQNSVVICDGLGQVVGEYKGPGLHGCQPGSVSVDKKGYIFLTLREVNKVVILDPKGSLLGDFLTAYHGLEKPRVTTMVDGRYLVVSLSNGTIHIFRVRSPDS
UniProt P29144: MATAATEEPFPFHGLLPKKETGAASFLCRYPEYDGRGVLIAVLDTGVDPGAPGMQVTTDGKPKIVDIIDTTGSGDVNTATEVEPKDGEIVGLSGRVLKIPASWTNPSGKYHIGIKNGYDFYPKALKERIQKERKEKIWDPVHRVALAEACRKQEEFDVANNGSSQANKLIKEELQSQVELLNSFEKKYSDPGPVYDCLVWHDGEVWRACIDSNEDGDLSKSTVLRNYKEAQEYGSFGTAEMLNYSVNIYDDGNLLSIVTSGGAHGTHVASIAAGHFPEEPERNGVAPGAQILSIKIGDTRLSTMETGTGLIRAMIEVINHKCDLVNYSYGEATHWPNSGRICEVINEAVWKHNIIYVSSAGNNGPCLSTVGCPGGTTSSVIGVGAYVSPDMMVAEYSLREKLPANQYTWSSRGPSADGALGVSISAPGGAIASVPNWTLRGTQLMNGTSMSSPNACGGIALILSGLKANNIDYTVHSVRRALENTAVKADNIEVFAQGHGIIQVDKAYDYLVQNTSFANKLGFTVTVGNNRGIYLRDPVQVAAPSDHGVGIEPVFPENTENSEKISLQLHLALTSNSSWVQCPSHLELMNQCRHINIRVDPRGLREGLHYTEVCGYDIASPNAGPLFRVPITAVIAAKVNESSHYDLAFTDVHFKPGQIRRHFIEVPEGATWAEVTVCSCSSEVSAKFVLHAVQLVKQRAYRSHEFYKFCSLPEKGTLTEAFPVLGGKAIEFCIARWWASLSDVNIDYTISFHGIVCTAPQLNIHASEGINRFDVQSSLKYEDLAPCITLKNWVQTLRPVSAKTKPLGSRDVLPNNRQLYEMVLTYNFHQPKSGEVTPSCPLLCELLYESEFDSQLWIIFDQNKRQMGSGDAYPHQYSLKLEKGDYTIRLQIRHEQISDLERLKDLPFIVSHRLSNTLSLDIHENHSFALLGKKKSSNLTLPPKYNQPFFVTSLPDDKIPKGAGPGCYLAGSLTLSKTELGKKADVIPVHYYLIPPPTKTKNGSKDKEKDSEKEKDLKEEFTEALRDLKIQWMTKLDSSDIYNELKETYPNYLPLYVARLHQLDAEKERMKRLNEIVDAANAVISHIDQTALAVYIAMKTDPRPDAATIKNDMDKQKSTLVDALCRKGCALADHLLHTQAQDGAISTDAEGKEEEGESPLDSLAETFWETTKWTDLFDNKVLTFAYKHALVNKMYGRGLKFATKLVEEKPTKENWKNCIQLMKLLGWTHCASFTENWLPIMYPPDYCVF
UniProt Q12933: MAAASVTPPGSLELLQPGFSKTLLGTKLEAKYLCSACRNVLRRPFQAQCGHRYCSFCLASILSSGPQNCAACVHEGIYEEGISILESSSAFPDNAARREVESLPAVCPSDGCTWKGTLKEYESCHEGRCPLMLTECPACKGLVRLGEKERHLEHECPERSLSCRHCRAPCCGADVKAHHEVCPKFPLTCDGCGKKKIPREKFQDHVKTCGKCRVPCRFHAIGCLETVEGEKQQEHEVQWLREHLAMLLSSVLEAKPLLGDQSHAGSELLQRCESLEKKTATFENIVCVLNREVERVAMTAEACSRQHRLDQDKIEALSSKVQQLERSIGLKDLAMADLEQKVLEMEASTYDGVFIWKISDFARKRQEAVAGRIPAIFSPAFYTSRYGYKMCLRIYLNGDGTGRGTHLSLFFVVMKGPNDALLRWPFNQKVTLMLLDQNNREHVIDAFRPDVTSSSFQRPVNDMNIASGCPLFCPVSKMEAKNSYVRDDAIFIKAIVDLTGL
UniProt Q9UPN9: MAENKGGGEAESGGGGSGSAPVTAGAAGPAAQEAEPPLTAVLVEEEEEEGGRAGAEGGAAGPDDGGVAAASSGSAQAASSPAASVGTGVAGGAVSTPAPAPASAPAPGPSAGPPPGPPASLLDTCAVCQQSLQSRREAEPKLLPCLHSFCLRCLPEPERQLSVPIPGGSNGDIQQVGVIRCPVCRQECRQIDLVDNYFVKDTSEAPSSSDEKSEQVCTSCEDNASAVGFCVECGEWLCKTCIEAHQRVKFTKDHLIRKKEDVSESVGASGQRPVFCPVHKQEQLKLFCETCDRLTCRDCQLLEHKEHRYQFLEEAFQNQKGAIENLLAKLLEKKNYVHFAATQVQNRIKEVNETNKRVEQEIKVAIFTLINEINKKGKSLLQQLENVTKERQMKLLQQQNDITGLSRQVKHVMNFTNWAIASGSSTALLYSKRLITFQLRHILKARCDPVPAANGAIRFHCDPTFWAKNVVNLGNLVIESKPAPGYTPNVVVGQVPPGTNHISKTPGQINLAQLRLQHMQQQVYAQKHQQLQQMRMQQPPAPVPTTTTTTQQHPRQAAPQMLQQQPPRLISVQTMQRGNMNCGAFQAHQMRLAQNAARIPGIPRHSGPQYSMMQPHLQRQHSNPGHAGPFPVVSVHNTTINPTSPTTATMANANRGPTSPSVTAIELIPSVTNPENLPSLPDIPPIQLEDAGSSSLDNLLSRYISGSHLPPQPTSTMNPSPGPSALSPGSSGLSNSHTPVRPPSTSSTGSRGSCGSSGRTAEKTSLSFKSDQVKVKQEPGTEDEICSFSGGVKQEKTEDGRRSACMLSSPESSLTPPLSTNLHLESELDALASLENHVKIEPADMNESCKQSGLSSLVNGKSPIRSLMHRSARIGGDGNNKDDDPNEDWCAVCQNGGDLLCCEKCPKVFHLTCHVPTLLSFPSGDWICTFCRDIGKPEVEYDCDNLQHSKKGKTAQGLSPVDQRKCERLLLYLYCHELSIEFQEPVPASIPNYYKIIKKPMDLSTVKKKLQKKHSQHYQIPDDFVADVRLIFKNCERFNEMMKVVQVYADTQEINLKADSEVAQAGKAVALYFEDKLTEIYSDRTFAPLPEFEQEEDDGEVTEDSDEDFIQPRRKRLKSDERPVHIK
UniProt P48553, whole entry, looked up: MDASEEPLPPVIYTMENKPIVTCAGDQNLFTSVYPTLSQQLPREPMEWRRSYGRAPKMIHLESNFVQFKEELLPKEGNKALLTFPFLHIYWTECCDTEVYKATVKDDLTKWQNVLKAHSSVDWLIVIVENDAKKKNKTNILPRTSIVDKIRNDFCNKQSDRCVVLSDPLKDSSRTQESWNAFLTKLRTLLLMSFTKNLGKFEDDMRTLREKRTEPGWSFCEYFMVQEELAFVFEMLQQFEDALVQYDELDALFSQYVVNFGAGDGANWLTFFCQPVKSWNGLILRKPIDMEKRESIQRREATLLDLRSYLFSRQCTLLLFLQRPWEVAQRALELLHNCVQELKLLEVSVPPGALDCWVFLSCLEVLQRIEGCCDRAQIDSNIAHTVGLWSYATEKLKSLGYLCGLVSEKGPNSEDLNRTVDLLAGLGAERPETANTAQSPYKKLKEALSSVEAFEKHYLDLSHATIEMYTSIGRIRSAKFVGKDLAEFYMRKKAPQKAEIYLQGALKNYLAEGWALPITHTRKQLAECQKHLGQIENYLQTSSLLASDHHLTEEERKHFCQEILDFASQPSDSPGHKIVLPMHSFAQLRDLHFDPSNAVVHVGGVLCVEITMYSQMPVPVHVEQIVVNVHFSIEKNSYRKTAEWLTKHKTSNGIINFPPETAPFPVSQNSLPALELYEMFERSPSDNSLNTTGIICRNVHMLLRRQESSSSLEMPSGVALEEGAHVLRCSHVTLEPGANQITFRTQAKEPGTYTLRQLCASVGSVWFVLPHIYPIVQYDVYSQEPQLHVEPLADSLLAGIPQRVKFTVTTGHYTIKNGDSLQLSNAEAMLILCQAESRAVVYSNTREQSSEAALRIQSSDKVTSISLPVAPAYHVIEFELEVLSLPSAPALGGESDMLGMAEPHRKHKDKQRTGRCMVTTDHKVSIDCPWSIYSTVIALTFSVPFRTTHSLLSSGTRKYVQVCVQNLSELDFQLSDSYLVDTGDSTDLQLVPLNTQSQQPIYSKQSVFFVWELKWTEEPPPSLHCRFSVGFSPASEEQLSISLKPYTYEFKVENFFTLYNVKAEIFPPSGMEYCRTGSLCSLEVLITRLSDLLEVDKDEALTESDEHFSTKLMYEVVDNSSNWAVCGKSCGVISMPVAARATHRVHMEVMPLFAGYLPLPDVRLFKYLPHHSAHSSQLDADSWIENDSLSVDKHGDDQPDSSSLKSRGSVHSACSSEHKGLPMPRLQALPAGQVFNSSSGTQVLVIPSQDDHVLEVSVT
UniProt Q9NXH9: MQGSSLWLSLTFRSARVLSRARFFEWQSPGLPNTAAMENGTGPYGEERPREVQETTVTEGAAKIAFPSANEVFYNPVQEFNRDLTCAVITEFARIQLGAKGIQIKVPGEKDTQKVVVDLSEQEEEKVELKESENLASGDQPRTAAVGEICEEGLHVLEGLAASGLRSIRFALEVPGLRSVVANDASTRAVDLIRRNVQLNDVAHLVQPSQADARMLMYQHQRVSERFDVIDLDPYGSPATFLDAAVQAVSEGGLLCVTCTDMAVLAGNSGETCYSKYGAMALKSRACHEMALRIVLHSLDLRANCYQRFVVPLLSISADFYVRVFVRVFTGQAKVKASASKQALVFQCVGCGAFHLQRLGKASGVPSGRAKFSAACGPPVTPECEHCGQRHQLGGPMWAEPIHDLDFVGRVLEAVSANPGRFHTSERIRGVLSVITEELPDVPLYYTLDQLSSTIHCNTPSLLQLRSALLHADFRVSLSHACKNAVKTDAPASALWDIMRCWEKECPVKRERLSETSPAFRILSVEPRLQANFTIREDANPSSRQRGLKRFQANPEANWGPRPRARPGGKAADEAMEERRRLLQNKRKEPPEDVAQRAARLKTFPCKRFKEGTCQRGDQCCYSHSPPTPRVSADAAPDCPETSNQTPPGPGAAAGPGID
UniProt Q14142: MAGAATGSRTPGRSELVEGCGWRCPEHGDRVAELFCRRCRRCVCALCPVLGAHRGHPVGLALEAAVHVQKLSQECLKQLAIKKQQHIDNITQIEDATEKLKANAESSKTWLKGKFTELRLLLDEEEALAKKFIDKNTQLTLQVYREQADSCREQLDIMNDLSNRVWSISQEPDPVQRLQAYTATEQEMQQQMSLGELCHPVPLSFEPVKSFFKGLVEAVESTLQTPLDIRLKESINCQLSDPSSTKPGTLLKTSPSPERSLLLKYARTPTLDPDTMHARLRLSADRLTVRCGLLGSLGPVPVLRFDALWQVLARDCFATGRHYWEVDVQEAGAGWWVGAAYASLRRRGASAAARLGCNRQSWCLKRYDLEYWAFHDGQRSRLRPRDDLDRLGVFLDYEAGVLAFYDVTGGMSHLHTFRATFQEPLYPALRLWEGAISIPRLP
UniProt O60858: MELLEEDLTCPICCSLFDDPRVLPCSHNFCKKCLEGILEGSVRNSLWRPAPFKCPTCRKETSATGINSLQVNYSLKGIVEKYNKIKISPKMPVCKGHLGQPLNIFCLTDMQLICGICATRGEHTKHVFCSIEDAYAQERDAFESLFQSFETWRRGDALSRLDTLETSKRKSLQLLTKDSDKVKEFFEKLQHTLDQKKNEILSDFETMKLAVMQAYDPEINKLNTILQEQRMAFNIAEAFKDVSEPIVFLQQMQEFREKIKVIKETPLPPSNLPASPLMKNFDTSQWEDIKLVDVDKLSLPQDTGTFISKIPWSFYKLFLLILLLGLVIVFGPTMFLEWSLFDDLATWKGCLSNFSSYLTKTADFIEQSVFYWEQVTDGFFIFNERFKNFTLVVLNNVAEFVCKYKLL
UniProt Q9UL33, whole entry, looked up: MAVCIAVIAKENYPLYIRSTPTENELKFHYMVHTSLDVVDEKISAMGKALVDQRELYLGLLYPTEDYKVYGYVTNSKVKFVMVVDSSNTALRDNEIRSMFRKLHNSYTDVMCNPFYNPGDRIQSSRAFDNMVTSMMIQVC

Compound: Cc1cc(ccc1-c1ccccc1)C(=O)N1CCCN(CC1)C(=O)CCl [compound 10]
Experiment: probe-labelled cysteine peptide fold change vs DMSO (competition) (log2 fold change); higher = less target engagement (more negative = stronger competition)
Conditions: THP-1, incubation time: 4 h
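Also: competitive profiling in live THP-1 cells: cysteine peptides tagged with an iodoacetamide desthiobiotin (IA-DTB) probe, intensity after compound treatment relative to DMSO-treated cells.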

| Target | probe-labelled cysteine peptide fold change (10 µM) | probe-labelled cysteine peptide fold change (50 µM) |
| --- | --- | --- |
| TRIM56_Q9BRZ2_41_TLPCLHTYCQDCLAQLADGGR (UniProt Q9BRZ2) | 0.238 | 0.113 |
| TPP2_P29144_787_YEDLAPCITLK (UniProt P29144) | 0.158 | 0.205 |
| TRAF2_Q12933_223_FHAIGCLETVEGEK (UniProt Q12933) | -0.0878 | -0.354 |
| TRIM33_Q9UPN9_943_DIGKPEVEYDCDNLQHSK (UniProt Q9UPN9) | -0.156 | -0.239 |
| TPP2_P29144_322_CDLVNYSYGEATHWPNSGR (UniProt P29144) | 0.253 | 0.357 |
| TRAPPC10_P48553_403_SLGYLCGLVSEK (UniProt P48553) | 0.199 | 0.264 |
| TRIM28_Q13263_713+717_VLLALFCHEPCRPLHQLATDSTFSLDQPGGTLDLTLIR (UniProt Q13263) | 0.037 | -0.42 |
| TRMT1_Q9NXH9_620+621_GDQCCYSHSPPTPR (UniProt Q9NXH9) | -0.276 | -0.722 |
| TPP2_P29144_710_FCSLPEK (UniProt P29144) | -0.0916 | 0.124 |
| TRIP6_Q15654_307_VFHVGCFVCSTCR (UniProt Q15654) | -0.0314 | 0.0788 |
| TRIM14_Q14142_42_CVCALCPVLGAHR (UniProt Q14142) | 0.0157 | 0.0727 |
| TRIM13_O60858_129_HVFCSIEDAYAQER (UniProt O60858) | 0.0513 | 0.747 |
| TRABD_Q9H4I3_287_CVPSVVVGVVGMGHVPGIEK (UniProt Q9H4I3) | -0.199 | -0.123 |
| TRIM28_Q13263_221+229_HEPLVLFCESCDTLTCR (UniProt Q13263) | -0.0841 | -0.368 |
| TRAPPC2L_Q9UL33_112_KLHNSYTDVMCNPFYNPGDR (UniProt Q9UL33) | 0.141 | -0.0539 |
